Assay [1] addresses endogenous LAG-3 expressed on SEB-stimulated cynomolgus monkey PBMCs (cynomolgus monkey). The assay can be described thus: FACS on SEB-stimulated cynomolgus monkey PBMCs.
For assay [2] the target is unchanged. The assay can be described thus: FACS on SEB-stimulated cynomolgus monkey PBMCs (FIGS. 18A-18B).

Our source for the binding values is patent publication US20190085075A1.

Results are given in words; binding and its absence hold for the method and conditions named. A result given as binding can be weak or reduced; the word gives no strength.

B1: hLAG-3 mAb 6 (1.1) (antibody, V domains shown)
VH: QVQLVQSGAEVKKPGASVKVSCKASGYTFTDYNMDWVRQAPGQGLEWMGDINPDNGVTIYNQKFEGRVTMTTDTSTSTAYMELRSLRSDDTAVYYCAREADYFYFDYWGQGTTLTVSS
VL: DIQMTQSPSSLSASVGDRVTITCRASQDVSSVVAWYQQKPGKAPKLLIYSASYRYTGVPSRFSGSGSGTDFTLTISSLQPEDFATYYCQQHYSTPWTFGGGTKLEIK
For B1, the binding entry in assay [1] and in assay [2] was “binds” in each case.
